Laboratory results from PMC13572491.

By UniProt entry, the sequences of proteins in these tests, tags left out. Where a name states a change or a piece, a line headed by the entry shows the natural chain unless it says otherwise.
UniProt Q86WV6: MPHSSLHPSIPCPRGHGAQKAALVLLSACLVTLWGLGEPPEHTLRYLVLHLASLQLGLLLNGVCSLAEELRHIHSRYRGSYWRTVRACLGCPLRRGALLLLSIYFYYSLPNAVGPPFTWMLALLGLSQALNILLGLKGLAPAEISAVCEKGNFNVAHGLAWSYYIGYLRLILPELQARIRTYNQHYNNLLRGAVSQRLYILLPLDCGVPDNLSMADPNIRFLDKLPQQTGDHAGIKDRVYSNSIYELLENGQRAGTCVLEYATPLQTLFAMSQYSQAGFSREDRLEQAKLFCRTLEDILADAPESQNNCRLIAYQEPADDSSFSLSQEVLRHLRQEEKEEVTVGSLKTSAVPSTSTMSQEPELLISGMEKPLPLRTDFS

Tests used:
[1] = target: T1, HA-MmSTING (STING of Mus musculus), expressed in HEK 293T (Mus musculus) (UniProt Q3TBT3); assay: co-IP; HA-immunoprecipitation (anti-HA agarose) on whole-cell extracts of HEK 293T transiently co-expressing HA-STING and FADS-FLAG; TENTG-150 buffer, 4 h at 4 °C; HA peptide elution; Western blot
T1 sequence: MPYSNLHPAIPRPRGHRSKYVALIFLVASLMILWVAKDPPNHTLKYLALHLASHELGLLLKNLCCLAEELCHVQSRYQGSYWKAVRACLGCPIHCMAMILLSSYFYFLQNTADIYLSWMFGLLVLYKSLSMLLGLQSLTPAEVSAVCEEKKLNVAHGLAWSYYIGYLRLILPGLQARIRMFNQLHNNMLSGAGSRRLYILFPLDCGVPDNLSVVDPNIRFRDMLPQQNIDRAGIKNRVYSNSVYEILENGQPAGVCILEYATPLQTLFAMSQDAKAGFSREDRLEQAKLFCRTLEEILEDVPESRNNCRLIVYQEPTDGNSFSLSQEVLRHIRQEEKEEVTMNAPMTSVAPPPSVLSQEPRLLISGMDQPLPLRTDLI

[2] = target: DmSTING (STING homolog of Drosophila melanogaster) (Drosophila melanogaster); assay: co-IP; co-immunoprecipitation of HA-tagged STING homologs and mutants with MmFADS2 (Supplementary Fig. 5B-F); cells and precipitated tag not told in the text shown
[3] = target: HA-tagged DrSTINGΔCTT (DrSTING with the C-terminal tail ablated) (Danio rerio); assay: as above
[4] = target: HA-tagged FsSTING (STING homolog of the bacterium Flavobacteriaceae sp.) (Flavobacteriaceae sp.); assay: as above
[5] = target: HA-tagged MmSTINGΔCTT (MmSTING with the C-terminal tail ablated) (Mus musculus); assay: as above
[6] = target: HA-tagged CgSTING (STING homolog of the mollusk Crassostrea gigas) (Crassostrea gigas); assay: as above
[7] = target: HA-XtSTING (STING of Xenopus tropicalis), expressed in HEK 293T (Xenopus tropicalis); assay: co-IP; HA-immunoprecipitation (anti-HA agarose) on whole-cell extracts of HEK 293T transiently co-expressing HA-STING and FADS-FLAG; TENTG-150 buffer, 4 h at 4 °C; HA peptide elution; Western blot
[8] = target: HA-MbSTING (STING homolog of Monosiga brevicollis), expressed in HEK 293T (Monosiga brevicollis); assay: as above
[9] = target: HA-MmSTINGΔCTTΔCBD (MmSTING mutant comprising the TMD alone) (Mus musculus); assay: as above
[10] = target: HA-HsSTING-R232H (human STING haplotype R232H), expressed in HEK 293T (Homo sapiens) (UniProt Q86WV6); assay: as above
[11] = target: HA-HsSTING-R232H-∆CTT (∆342-379), expressed in HEK 293T (Homo sapiens) (UniProt Q86WV6); assay: as above
[12] = target: HA-MbSTING stably expressed in MEF Sting-/- (MEF^MbSTING) (Monosiga brevicollis); assay: co-IP; HA-immunoprecipitation on whole-cell extracts of MEF Sting-/- stably expressing HA-STING homologs; endogenous FADS2 detected by Western blot; TENTG-150 buffer, HA peptide elution
[13] = target: HA-XtSTING stably expressed in MEF Sting-/- (MEF^XtSTING) (Xenopus tropicalis); assay: as above
[14] = target: HA-HsSTING-AQ stably expressed in THP-1 STING-/- (THP-1^HsSTING-AQ) (Homo sapiens) (UniProt Q86WV6); assay: co-IP; HA-immunoprecipitation on whole-cell extracts of THP-1 STING-/- stably expressing HA-HsSTING haplotypes or mutant; FADS2 detected by Western blot
[15] = target: HA-HsSTING-HAQ stably expressed in THP-1 STING-/- (THP-1^HsSTING-HAQ) (Homo sapiens) (UniProt Q86WV6); assay: as above
[16] = target: HA-HsSTING-R232H stably expressed in THP-1 STING-/- (THP-1^HsSTING-R232H) (Homo sapiens) (UniProt Q86WV6); assay: as above

MbFADS-FLAG (FADS-like protein of Monosiga brevicollis) (enzyme)
binding [1]: binds

XtFADS2-FLAG (fatty acid desaturase 2 of Xenopus tropicalis) (enzyme)
binding [1]: binds weakly

B1: MmFADS2-FLAG (fatty acid desaturase 2 of Mus musculus) (enzyme, UniProt Q9Z0R9 1-444)
chain: MGKGGNQGEGSTERQAPMPTFRWEEIQKHNLRTDRWLVIDRKVYNVTKWSQRHPGGHRVIGHYSGEDATDAFRAFHLDLDFVGKFLKPLLIGELAPEEPSLDRGKSSQITEDFRALKKTAEDMNLFKTNHLFFFLLLSHIIVMESLAWFILSYFGTGWIPTLVTAFVLATSQAQAGWLQHDYGHLSVYKKSIWNHVVHKFVIGHLKGASANWWNHRHFQHHAKPNIFHKDPDIKSLHVFVLGEWQPLEYGKKKLKYLPYNHQHEYFFLIGPPLLIPMYFQYQIIMTMISRRDWVDLAWAISYYMRFFYTYIPFYGILGALVFLNFIRFLESHWFVWVTQMNHLVMEIDLDHYRDWFSSQLAATCNVEQSFFNDWFSGHLNFQIEHHLFPTMPRHNLHKIAPLVKSLCAKHGIEYQEKPLLRALIDIVSSLKKSGELWLDAYLHK
binding [2]: binds | binding [3]: binds | binding [4]: no binding | binding [5]: binds | binding [6]: no binding | binding [7]: binds | binding [8]: binds | binding [9]: binds

B2: HsFADS2-FLAG (human fatty acid desaturase 2) (enzyme, UniProt O95864 1-444)
chain: MGKGGNQGEGAAEREVSVPTFSWEEIQKHNLRTDRWLVIDRKVYNITKWSIQHPGGQRVIGHYAGEDATDAFRAFHPDLEFVGKFLKPLLIGELAPEEPSQDHGKNSKITEDFRALRKTAEDMNLFKTNHVFFLLLLAHIIALESIAWFTVFYFGNGWIPTLITAFVLATSQAQAGWLQHDYGHLSVYRKPKWNHLVHKFVIGHLKGASANWWNHRHFQHHAKPNIFHKDPDVNMLHVFVLGEWQPIEYGKKKLKYLPYNHQHEYFFLIGPPLLIPMYFQYQIIMTMIVHKNWVDLAWAVSYYIRFFITYIPFYGILGALLFLNFIRFLESHWFVWVTQMNHIVMEIDQEAYRDWFSSQLTATCNVEQSFFNDWFSGHLNFQIEHHLFPTMPRHNLHKIAPLVKSLCAKHGIEYQEKPLLRALLDIIRSLKKSGKLWLDAYLHK
binding [10]: binds | binding [11]: binds

B3: endogenous MmFADS2 (fatty acid desaturase 2) of mouse embryonic fibroblasts (enzyme, UniProt Q9Z0R9 1-444)
chain: B1 chain
binding [12]: binds | binding [13]: binds

B4: FADS2 of THP-1 human myeloid cells (enzyme, UniProt O95864 1-444)
chain: B2 chain
binding [14]: binds | binding [15]: binds | binding [16]: binds

These are yes or no findings as the source states them, for the method shown. In cells and extracts the contact can be indirect. For some assays here: Binding can be weak; no strength is given. For some assays here: Tags and fused reporters may be left off the sequences shown.
